PubChem BioAssay AID504795 | Drosophila RNAi Screening Center, 2011
Only reagents picked out of a larger screen are listed. 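Every listed dsRNA shows some phenotype; how reagents were selected for listing is not stated.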 Names joined by + are all predicted targets of the reagent. Reagent sequences are not shown.

- Test: 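Fly genes whose loss alters neurite growth or neural cell form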 (primary screen)
- Cell system: primary Drosophila neurons and glia
- Reagents: long dsRNA against Drosophila genes, 250 ng dsRNA per well
- Timing: one week
- Detection: 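Descriptive morphology terms assigned by visual inspection of live automated images of GFP-marked cells, taken one week after adding 250 ng dsRNA per well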

target | DRSC id | phenotype seen, replicate 1 | phenotype seen, replicate 2
CG42493 | DRSC05309 | abnormal cell clusters | –
Orcokinin | DRSC04202 | abnormal cell clusters | –
Gr22a | DRSC22283 | abnormal cell clusters | –
Prosbeta4 | DRSC02603 | sheet-like cell extensions | –
Ude | DRSC15324 | too many neurite branches | –
Muc12Ea | DRSC19937 | too many neurite branches | –
zfh1 | DRSC17098 | axon bundles split apart | –
Cpr62Bb | DRSC08404 | too many neurite branches | –
chp | DRSC16925 | axon bundles split apart | –
CG10357 | DRSC08155 | beaded; swollen axons | –
lin-52 | DRSC18106 | reduced axon outgrowth | –
RpS24 | DRSC04414 | too many neurite branches | –
RpS4 | DRSC11272 | abnormal cell clusters | too many neurite branches
dally | DRSC08954 | abnormal cell clusters | –
Ttc7 | DRSC04836 | sheet-like cell extensions | –
Unr | DRSC10761 | axon bundles split apart | –
DnaJ-H | DRSC03273 | reduced axon outgrowth | –
CG15650 | DRSC04241 | axon bundles split apart | –
nes | DRSC11375 | too many neurite branches | –
Shark | DRSC07680 | beaded; swollen axons | –
aly | DRSC08707 | abnormal cell clusters | –
CG14180 (retired record) | DRSC10179 | axon bundles split apart | –
CG18449 | DRSC06754 | too many neurite branches | –
shams | DRSC16590 | abnormal cell clusters | –
CG15237 | DRSC04971 | too many neurite branches | –
robl62A | DRSC08153 | too many neurite branches | –
Ciz1 | DRSC09675 | abnormal cell clusters | –
GC2 | DRSC14476 | axon bundles split apart | –
Fntb | DRSC15244 | cell fragments present | –
rno | DRSC08584 | beaded; swollen axons | –
CG11076 | DRSC17197 | axon bundles split apart | –
cyp33 + CG34194 | DRSC05666 | too many neurite branches | –
CG2691 | DRSC19866 | sheet-like cell extensions | –
Strip | DRSC08194 | cell fragments present | –
loaf | DRSC09130 | too many neurite branches | –
CG31678 | DRSC02619 | abnormal cell clusters | –
Grx1 | DRSC10727 | reduced axon outgrowth | –
CG5455 | DRSC15805 | reduced axon outgrowth | –
CG13010 | DRSC19529 | too many neurite branches | –
Galphaf | DRSC11171 | axon bundles split apart | –
CG15212 | DRSC10212 | abnormal cell clusters | –
Jon99Fii | DRSC15430 | too many neurite branches | –
Tlk | DRSC17835 | sheet-like cell extensions | –
Cap-G | DRSC21805 | axon bundles split apart | –
tHMG2 | DRSC16182 | sheet-like cell extensions | –
EbpIII | DRSC04638 | axon bundles split apart | –
mip130 | DRSC18575 | abnormal cell clusters | –
CG3473 | DRSC01915 | axon bundles split apart | –
Vm32E | DRSC03474 | axon bundles split apart | –
RpL7 | DRSC03417 | axon bundles split apart | axon bundles split apart
CG8420 | DRSC16418 | reduced axon outgrowth | –
CG14787 | DRSC18606 | sheet-like cell extensions | –
Ptp36E | DRSC03021 | too many neurite branches | –
dap | DRSC07601 | sheet-like cell extensions | –
CG7550 | DRSC10875 | abnormal cell clusters | –
CG11269 | DRSC04094 | abnormal cell clusters | –
CG17145 | DRSC10247 | axon bundles split apart | –
CG14297 | DRSC14776 | sheet-like cell extensions | –
tow | DRSC10192 | axon bundles split apart | –
Rpt4 | DRSC18713 | sheet-like cell extensions | –
spaw | DRSC06824 | abnormal cell clusters | –
Mur29B | DRSC02376 | beaded; swollen axons | –
asp | DRSC16903 | cell fragments present | –
MFS10 | DRSC19888 | sheet-like cell extensions | –
CG13033 | DRSC09913 | cell fragments present | –
CG32795 | DRSC18609 | too many neurite branches | –
Gld | DRSC12595 | too many neurite branches | –
ringer | DRSC10455 | abnormal cell clusters | –
CG7156 | DRSC16207 | axon bundles split apart | –
CG12824 | DRSC06173 | too many neurite branches | –
serp | DRSC11035 | fewer cells | –
dor | DRSC18765 | axon bundles split apart | –
RpL35 | DRSC18347 | weaker green signal | –
Pbgs | DRSC09718 | abnormal cell clusters | –
CG33136 | DRSC05744 | abnormal cell clusters | –
CG34409 | DRSC14577 | axon bundles split apart | –
CG34409 | DRSC21667 | reduced axon outgrowth | –
Mob4 | DRSC04993 | abnormal cell clusters | –
Lasp | DRSC10379 | too many neurite branches | –
CG1722 | DRSC20547 | too many neurite branches | –
bigmax | DRSC15481 | axon bundles split apart | –
CG7272 | DRSC10795 | too many neurite branches | –
zetaCOP | DRSC11412 | reduced axon outgrowth | –
snRNP-U1-70K | DRSC03612 | reduced axon outgrowth | –
CG9581 | DRSC20695 | sheet-like cell extensions | –
CG13045 | DRSC09926 | reduced axon outgrowth | –
CG17475 | DRSC15238 | axon bundles split apart | –
Uros2 | DRSC16505 | abnormal cell clusters | –
CG32073 | DRSC09087 | abnormal cell clusters | –
CG32073 | DRSC09894 | too many neurite branches | –
eIF3m | DRSC07142 | beaded; swollen axons | –
MsrA | DRSC11159 | too many neurite branches | –
Samtor | DRSC04390 | too many neurite branches | –
Inx7 | DRSC18784 | sheet-like cell extensions | –
Pxd | DRSC16805 | beaded; swollen axons | –
CG3847 | DRSC18327 | abnormal cell clusters | –
CG42518 + MED9 | DRSC06917 | axon bundles split apart | –
CG43317 | DRSC15000 | abnormal cell clusters | –
RpLP1 | DRSC22145 | axon bundles split apart | sheet-like cell extensions
CG31373 | DRSC16052 | sheet-like cell extensions | –
CG7963 | DRSC16355 | cell fragments present | –
CG8323 | DRSC07149 | axon bundles split apart | –
CG10163 | DRSC09710 | beaded; swollen axons | –
CG12689 | DRSC17879 | axon bundles split apart | –
Dscam2 | DRSC08869 | abnormal cell clusters | –
bun | DRSC03500 | axon bundles split apart | –
RpS15Ab + RpS15Aa | DRSC06129 | beaded; swollen axons | –
RpS15Ab + RpS15Aa | DRSC19831 | too many neurite branches | –
CG33679 | DRSC01436 | axon bundles split apart | –

Limited to “phenotype seen, replicate 1” (17 entries from above):
Muc12Ea [DRSC19937] = too many neurite branches
zfh1 [DRSC17098] = axon bundles split apart
Cpr62Bb [DRSC08404] = too many neurite branches
chp [DRSC16925] = axon bundles split apart
CG10357 [DRSC08155] = beaded; swollen axons
lin-52 [DRSC18106] = reduced axon outgrowth
RpS24 [DRSC04414] = too many neurite branches
RpS4 [DRSC11272] = abnormal cell clusters
dally [DRSC08954] = abnormal cell clusters
Ttc7 [DRSC04836] = sheet-like cell extensions
Unr [DRSC10761] = axon bundles split apart
DnaJ-H [DRSC03273] = reduced axon outgrowth
CG15650 [DRSC04241] = axon bundles split apart
nes [DRSC11375] = too many neurite branches
Shark [DRSC07680] = beaded; swollen axons
aly [DRSC08707] = abnormal cell clusters
CG14180 (retired record) [DRSC10179] = axon bundles split apart
